Laboratory results published in patent US20250313537A1, “BENZ[…] AND METHODS OF USE IN TREATING CANCER” (University of Cincinnati, priority 2022, published 2025).

Assays:
[1] = tested on: Lewis Lung Carcinoma cells; assay: Mitochondrial depolarization, TMRE binding by FACS; assay type: cell-based, mouse
GABAA receptors = conditions: medulloblastoma (cells and tumor tissue) and melanoma cells
[2] = tested on: Lewis Lung Carcinoma (LLC) tumors; assay: Bilateral flank LLC tumor growth delay in C57Bl6 mice; assay type: in vivo, mouse; conditions: 2.5 mg/kg i.p. for seven consecutive days
Source text: For in vitro studies drug was solubilized in dimethyl sulfoxide (DMSO, 0.125%) prior to use. For mouse studies drug was solubilized in a co-solvent formulation: propylene glycol (40%); ethanol (10%); benzyl alcohol (2%); benzoic acid (2%); sodium benzoate (2%).
For subcutaneous xenograft tumor growth delay experiments, black 6 mice (C57Bl6) were purchased (Charles River Laboratories) and housed at University of Cincinnati LAMS. Purchased mice were allowed to accommodate for a week prior to experiment. Mice were housed in pathogen-free rooms and clinical health evaluated weekly by veterinary staff of the University of Cincinnati LAMS. All animal studies were conducted in accordance with approval of a University of Cincinnati IACUC.
LLC1 cells (a million) grown in RPMI medium were washed in cold PBS and mixed with Matrigel 25%, then injected subcutaneously into left and right flanks above the hind limbs of 6 to 8-week-old mice. When subcutaneous tumors were palpable (˜100 mm^3 in size) the following treatments groups were initiated: (1) vehicle (2) drug. In mice receiving vehicle alone, the vehicle was injected i.p for 7 days. […] Mouse tumors were measured by Vernier calipers. Tumor volume was calculated using the formula: 4/3π×(l×h2), where: l and h are radii of the tumor taken perpendicular to each other. Tumor size was measured three times a week using a caliper.

## C#Cc1ccc2c(c1)C(c1ccccc1)=NCC(=O)N2C [QH-II-066]
[1]; Lewis Lung Carcinoma cells, FACS, within 15 minutes of incubation
  TMRE binding (depolarization): reduced TMRE binding
[1]; different/disparate cancer cell types
  shift in electric charge distribution / depolarization of cancer cells: shift in electric charge distribution
GABAA receptors
  chloride transport: enhances chloride transport
[2]
  tumor control relative to vehicle mice: significant tumor control
